Assay results reported in patent publication US20180105568A1.
Results are given in words; binding and its absence hold for the method and conditions named. Some results given as binding are weak or reduced against the parent protein; the word gives no strength. Values belong to the binder of their own block, whether it stands above or below them.

Molecular target: T1, calcitonin receptor of T47D cells (human breast epithelial cell line) (human) (UniProt P30988)
T1 sequence (looked up): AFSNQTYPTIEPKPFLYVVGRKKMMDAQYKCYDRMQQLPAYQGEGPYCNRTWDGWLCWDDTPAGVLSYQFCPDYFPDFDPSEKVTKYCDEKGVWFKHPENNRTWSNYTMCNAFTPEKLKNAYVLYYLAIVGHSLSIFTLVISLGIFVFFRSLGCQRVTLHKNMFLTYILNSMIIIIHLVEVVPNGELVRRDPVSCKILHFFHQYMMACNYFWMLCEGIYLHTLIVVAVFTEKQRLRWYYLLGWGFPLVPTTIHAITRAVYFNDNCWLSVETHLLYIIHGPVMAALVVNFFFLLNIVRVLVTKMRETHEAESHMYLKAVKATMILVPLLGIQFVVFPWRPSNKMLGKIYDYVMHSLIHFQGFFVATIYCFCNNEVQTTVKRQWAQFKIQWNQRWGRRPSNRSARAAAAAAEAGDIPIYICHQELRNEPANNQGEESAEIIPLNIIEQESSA
Assay: T47D cell bioassay, read out as % cAMP binding relative to sCT

binding: binds
B1: UGP302 (peptide)
peptide: CSNLSTCVLGKLSQELHKLQTYPRTDVGANAP
modifications: acetyl group on cysteine-1 (Ac-); C-terminal amide (-NH2)

binding: binds
B2: salmon calcitonin (peptide)
peptide: CSNLSTCVLGKLSQELHKLQTYPRTNTGSGTP
